Some of the results follow.

The target of the assay is T1, OsSMF1 (Oryza sativa, UniProt Q6ZLB0 1-436).
T1 sequence: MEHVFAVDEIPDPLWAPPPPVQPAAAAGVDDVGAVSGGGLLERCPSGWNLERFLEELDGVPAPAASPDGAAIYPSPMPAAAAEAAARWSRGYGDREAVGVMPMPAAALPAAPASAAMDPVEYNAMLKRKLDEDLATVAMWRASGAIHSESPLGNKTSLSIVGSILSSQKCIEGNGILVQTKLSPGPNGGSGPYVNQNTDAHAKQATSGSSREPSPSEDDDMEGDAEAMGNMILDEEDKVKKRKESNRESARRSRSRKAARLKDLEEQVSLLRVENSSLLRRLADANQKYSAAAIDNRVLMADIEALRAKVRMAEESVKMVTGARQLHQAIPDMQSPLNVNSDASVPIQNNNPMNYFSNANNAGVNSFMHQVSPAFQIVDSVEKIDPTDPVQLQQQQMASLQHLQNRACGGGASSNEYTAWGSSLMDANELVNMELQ
Nature of the assay: protein-binding microarray (RPBM); PBS, 2% BSA, 51.3 ng/ul salmon testes DNA, 50 uM zinc acetate, 200 nM TF, 25 C, 1 h; high values mean tight binding. The settings on record: protein: recombinant; tags: N-terminal polyhistidine and DsRed monomer fusion (pET32a); chain copies: 2; label: CyDye5-dUTP incorporated in the synthesized complementary strand; 3' TTTTT single-stranded linker to array surface; dsDNA, one strand shown. The essentials: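 A custom Agilent array was converted to double-stranded form by primer extension with Cy5-dUTP and blocked with 2% BSA. Protein at 200 nM in PBS with 2% BSA, salmon testes DNA and 50 µM zinc acetate was applied for 1 h at 25 °C, followed by washing. The proteins were polyhistidine–DsRed N-terminal fusions of transcription factors, expressed in E. coli BL21-CodonPlus and Ni–NTA-purified. The binding signal is per-feature fluorescence intensity (arbitrary units) from an Axon 4000B scanner.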
For the sequence “TAGGATGAAATTAGCCCATCAGGTATTACGTGTGGGCCGTCGGAGTCACCTAGTGCAG”, the binding signal is 3400 fluorescence intensity (a.u.).
As to “GCAAATCCCGCGCACATGACGCGCTGATGAGTGATGACACCGGAGTCACCTAGTGCAG”, the binding signal was 3170 fluorescence intensity (a.u.).
For the sequence “GCCCGCGAGTCCACGACGCCCACCACACCGCACACACAGACGGAGTCACCTAGTGCAG”, the binding signal was 3880 fluorescence intensity (a.u.).
To “TAACTGTATCTGTGTTATGAAACTTTGAATGACATCACTGCGGAGTCACCTAGTGCAG” belongs 4310 fluorescence intensity (a.u.); to “GACGTGGAGCAGCCGCCGGTTGTTGCTCTTGGCCCAAGTGCGGAGTCACCTAGTGCAG”, 14900 fluorescence intensity (a.u.); to “GGCCGTATACGTGCCTCGGCCTCAGTCTTAGCTGAACTGGCGGAGTCACCTAGTGCAG”, 25000 fluorescence intensity (a.u.).
Turning to “AATAGTCTGCTATTGTACCTGCTCTGAACTGTTGCCCATTCGGAGTCACCTAGTGCAG”, the binding signal is 3240 fluorescence intensity (a.u.).
“TAGCGGCCACATGCTTAAGAAGTCACGTTGCACCGTGCCACGGAGTCACCTAGTGCAG”: the binding signal was 3570 fluorescence intensity (a.u.).
Regarding “CGAATTCCTCGAGTCCACCGTGGACCGGGCCCATGCACCGCGGAGTCACCTAGTGCAG”, the binding signal was 5490 fluorescence intensity (a.u.).
“GATAATGCATATGATTGACGTCGTGTTTATCTGATGTTAGCGGAGTCACCTAGTGCAG”: the binding signal was 3710 fluorescence intensity (a.u.).
Turning to “GTTAAATCTAGTATGAAACATATTGAGTCATCTATCATAGCGGAGTCACCTAGTGCAG”, the binding signal is 4620 fluorescence intensity (a.u.).
For the sequence “AATAAGCCCTAGTGACCTAGGACGACGGAGACTCCACCCACGGAGTCACCTAGTGCAG”, the binding signal was 3390 fluorescence intensity (a.u.).
The same measure for “AATATATGATGAAAAGGTAAATGATGACGTGGAATAATAACGGAGTCACCTAGTGCAG”: 9040 fluorescence intensity (a.u.).
As to “TGTTTCAAGCTAAGACTGAGCTAGTTTCATGTTTCAAACACGGAGTCACCTAGTGCAG”, the binding signal is 37700 fluorescence intensity (a.u.).
Turning to “TTCCCTTCTCACCACCTCCAAGTACGCTTTGCGGGACACTCGGAGTCACCTAGTGCAG”, the binding signal is 4480 fluorescence intensity (a.u.).
To “TCTCTGCTGGAATCTGAAGAAAATCGTCATCTGAATCACGCGGAGTCACCTAGTGCAG” belongs 3610 fluorescence intensity (a.u.); to “CTCGTTCACTGAGACTCAGAGAGTGAGGTGACTTGAGGCGCGGAGTCACCTAGTGCAG”, 3770 fluorescence intensity (a.u.); to “GATACGCAAAACGAGGTGAGTCATTAGCGTATAATTAATTCGGAGTCACCTAGTGCAG”, 8280 fluorescence intensity (a.u.).
Take “CCACGCGCCGCAACTAGAAAAGTGATGATTCGGAGGTGGACGGAGTCACCTAGTGCAG”: the binding signal is 24400 fluorescence intensity (a.u.).
Consider “AGGGCCAGCCACGCACGCACGCACGCCACCGCGCTCCATTCGGAGTCACCTAGTGCAG”, for which the binding signal is 7130 fluorescence intensity (a.u.).
With “ACTAGTGAATTTCTGGGCGTGACAGTGATCCACATGTCAACGGAGTCACCTAGTGCAG”, the binding signal was 4730 fluorescence intensity (a.u.).
On to “GTCACGGCTGCTTTATCGAGCCGTCCCGTGCCGTGCCGGACGGAGTCACCTAGTGCAG”, for which the binding signal is 17000 fluorescence intensity (a.u.).
With “TGCTGATGTTGCTGCTAAAATTGCACCATTGTTGTGTAACCGGAGTCACCTAGTGCAG”, the binding signal was 40700 fluorescence intensity (a.u.).
Turning to “AAAGAAAACATTAGAGAGTCAAAACACAAATTAACCCGGCCGGAGTCACCTAGTGCAG”, the binding signal was 32300 fluorescence intensity (a.u.).
The same measure for “AGAGGGAGGAGTTGAGTAACTGACACGTGGCCTAAATTTTCGGAGTCACCTAGTGCAG”: 14500 fluorescence intensity (a.u.); for “ATGAAGAGGACGCATGCAAAACGCGCCAACTCCCAACTGCCGGAGTCACCTAGTGCAG”: 25800 fluorescence intensity (a.u.).
With “CCCTACTCCGGCGGTGGGTGACGTCACTTTATTTGGATTTCGGAGTCACCTAGTGCAG”, the binding signal was 23500 fluorescence intensity (a.u.).
“ACAAACCATTTTGCTGTTTGTTTACACGTCAAACTCGTCGCGGAGTCACCTAGTGCAG”: the binding signal is 6650 fluorescence intensity (a.u.).
With “TCAGCGGCAGCCCACCCGACTGGGCCGGTCATCGGCGCCACGGAGTCACCTAGTGCAG”, the binding signal was 3470 fluorescence intensity (a.u.).
In the case of “AACCTCCATCTCCCGCCCAGTGCCGCCGCGCCACGTCACCCGGAGTCACCTAGTGCAG”, the binding signal was 39100 fluorescence intensity (a.u.).
Turning to “TGGCAGGCCACTACTCCTCCACGTGGCCGTGTGGCGTGGGCGGAGTCACCTAGTGCAG”, the binding signal is 12200 fluorescence intensity (a.u.).
Regarding “CAGCACAGATGTCACTAATCAATGTCATCATCCTCGCCTACGGAGTCACCTAGTGCAG”, the binding signal was 3660 fluorescence intensity (a.u.).
To “CTGTGCACACGTGCACTGCAAGCTTACCGCACGCATCCAACGGAGTCACCTAGTGCAG” belongs 3660 fluorescence intensity (a.u.).
On to “CAACTCCTACGACACGGTACGGATGACGTTGCATCAAATGCGGAGTCACCTAGTGCAG”, for which the binding signal is 4220 fluorescence intensity (a.u.).
For the sequence “AAGACATGTGGGCCCACACACGTCGACTCAGCCAGTTGGACGGAGTCACCTAGTGCAG”, the binding signal is 3300 fluorescence intensity (a.u.).
As for “GCGTTTAGATCCTTGGCAATGGGGATTTTAGCCTTGCATACGGAGTCACCTAGTGCAG”, the binding signal was 16400 fluorescence intensity (a.u.).
For “ATTAAGATCTGAAAATTAGCACACATGACACATCCCATTACGGAGTCACCTAGTGCAG”, the binding signal was 3950 fluorescence intensity (a.u.).
Turning to “GCAAATAATGCGTCTCTTTTCTCTCATCATAGCCTTTCGACGGAGTCACCTAGTGCAG”, the binding signal is 3460 fluorescence intensity (a.u.).
With “GAGGGCGGAGGAGGTGGTGAGGGAGGAGGTGCGGAGGCTGCGGAGTCACCTAGTGCAG”, the binding signal is 4950 fluorescence intensity (a.u.).
With “TTCTTCTTGTATCGGCCAGTCGAGTCAGCAGAGATCGAGACGGAGTCACCTAGTGCAG”, the binding signal was 6020 fluorescence intensity (a.u.).
As to “TCCGTCTCGCCTCGTCACCTCACCTCGGCATCACCCAGGTCGGAGTCACCTAGTGCAG”, the binding signal was 10800 fluorescence intensity (a.u.).
Consider “AGACGATCTCATGACATTAATTTGACCATCATTAGGCCTACGGAGTCACCTAGTGCAG”, for which the binding signal is 3180 fluorescence intensity (a.u.).

(Values after PMC7819943, “Rice protein-binding microarrays: a tool to detect cis-acting elements near promoter regions in rice”.)
